Source: the supplement of paper PMC12823440, “Inhibitors supercharge kinase turnover through native proteolytic circuits” (Nature, 2025)
Some of the results follow. Hit calls seldom repeat between salt and free forms of one compound.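 Kinases, fused to nanoluciferase, were expressed in K562 cells; luminescence was measured every 4 h from 2 to 18 h as percent of control (DMSO = 100%, positive control = 0%). A time point is decreased if signal falls significantly (2 sigma). Hits were called by the authors by a rule that is not shown; the count of time points alone does not decide it.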

Amino acid sequences for entries named in this document (tags omitted). A change or cut given only in a name is not applied to a line headed by its entry.
UniProt P28482, whole entry: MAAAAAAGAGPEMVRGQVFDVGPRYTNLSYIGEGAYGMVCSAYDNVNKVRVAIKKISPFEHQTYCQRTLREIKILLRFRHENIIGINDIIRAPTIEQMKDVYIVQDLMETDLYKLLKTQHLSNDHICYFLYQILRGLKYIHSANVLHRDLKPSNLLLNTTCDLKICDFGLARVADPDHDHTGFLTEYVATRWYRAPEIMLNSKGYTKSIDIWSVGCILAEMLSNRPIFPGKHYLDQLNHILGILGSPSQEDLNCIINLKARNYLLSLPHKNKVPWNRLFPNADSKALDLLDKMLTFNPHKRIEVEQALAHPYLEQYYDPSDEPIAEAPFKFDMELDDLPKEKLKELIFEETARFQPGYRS
UniProt P31152, whole entry: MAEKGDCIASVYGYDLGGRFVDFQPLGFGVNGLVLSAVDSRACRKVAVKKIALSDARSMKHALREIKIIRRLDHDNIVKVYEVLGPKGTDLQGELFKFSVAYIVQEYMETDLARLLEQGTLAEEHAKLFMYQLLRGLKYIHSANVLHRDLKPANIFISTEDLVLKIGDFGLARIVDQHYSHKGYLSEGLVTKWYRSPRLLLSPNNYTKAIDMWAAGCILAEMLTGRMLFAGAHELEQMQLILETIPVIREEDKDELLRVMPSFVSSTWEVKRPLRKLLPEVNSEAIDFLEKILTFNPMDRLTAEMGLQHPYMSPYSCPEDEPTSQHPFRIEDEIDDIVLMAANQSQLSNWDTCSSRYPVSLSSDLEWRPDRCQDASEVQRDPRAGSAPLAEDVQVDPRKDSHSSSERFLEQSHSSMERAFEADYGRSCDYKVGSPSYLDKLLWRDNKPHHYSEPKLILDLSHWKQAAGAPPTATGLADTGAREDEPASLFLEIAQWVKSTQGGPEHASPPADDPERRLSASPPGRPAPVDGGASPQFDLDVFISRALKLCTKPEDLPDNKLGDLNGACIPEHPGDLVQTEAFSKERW
UniProt P49137, whole entry, looked up: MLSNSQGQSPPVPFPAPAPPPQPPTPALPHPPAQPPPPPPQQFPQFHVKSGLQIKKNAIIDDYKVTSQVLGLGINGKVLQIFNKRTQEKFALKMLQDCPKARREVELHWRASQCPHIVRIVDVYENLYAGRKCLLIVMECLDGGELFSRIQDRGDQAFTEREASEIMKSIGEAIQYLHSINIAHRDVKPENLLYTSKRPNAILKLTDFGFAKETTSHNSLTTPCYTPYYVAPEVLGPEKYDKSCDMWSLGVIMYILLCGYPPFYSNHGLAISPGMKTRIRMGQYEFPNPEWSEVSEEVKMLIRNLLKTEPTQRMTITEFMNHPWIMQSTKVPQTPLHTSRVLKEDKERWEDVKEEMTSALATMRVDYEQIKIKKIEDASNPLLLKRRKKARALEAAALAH
UniProt Q9BUB5: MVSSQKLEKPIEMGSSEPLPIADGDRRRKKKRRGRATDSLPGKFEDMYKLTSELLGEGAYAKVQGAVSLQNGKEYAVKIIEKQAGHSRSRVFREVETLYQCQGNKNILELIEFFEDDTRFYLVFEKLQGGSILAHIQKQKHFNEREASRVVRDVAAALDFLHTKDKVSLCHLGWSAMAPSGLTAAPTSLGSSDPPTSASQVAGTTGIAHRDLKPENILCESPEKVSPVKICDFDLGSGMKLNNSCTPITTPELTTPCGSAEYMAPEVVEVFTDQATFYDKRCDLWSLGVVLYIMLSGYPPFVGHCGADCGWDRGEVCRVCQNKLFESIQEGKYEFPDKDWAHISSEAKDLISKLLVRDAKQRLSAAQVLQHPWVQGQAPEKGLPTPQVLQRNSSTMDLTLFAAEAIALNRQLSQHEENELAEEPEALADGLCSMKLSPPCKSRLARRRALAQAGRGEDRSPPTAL
UniProt Q16620, whole entry, looked up: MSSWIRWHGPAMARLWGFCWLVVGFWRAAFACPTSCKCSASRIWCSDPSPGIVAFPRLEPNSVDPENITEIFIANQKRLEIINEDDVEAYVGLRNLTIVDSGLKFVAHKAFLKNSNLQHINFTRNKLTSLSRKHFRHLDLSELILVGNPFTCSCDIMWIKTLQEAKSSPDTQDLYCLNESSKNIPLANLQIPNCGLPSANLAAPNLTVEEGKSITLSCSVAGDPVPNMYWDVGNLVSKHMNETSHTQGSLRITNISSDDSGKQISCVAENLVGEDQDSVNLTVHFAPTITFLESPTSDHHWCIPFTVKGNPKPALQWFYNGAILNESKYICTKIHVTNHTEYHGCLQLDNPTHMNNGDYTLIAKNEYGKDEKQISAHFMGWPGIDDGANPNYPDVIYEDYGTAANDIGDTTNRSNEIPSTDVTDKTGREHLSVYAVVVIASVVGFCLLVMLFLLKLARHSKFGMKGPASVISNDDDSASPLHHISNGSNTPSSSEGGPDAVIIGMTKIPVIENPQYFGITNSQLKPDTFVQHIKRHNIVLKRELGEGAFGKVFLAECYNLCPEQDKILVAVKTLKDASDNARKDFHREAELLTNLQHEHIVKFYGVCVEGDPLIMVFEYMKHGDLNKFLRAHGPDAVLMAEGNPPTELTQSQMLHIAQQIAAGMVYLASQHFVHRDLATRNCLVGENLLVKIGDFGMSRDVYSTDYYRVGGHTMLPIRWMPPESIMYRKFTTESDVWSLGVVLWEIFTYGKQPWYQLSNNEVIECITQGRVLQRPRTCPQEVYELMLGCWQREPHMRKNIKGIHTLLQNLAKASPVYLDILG
UniProt Q16288, whole entry, looked up: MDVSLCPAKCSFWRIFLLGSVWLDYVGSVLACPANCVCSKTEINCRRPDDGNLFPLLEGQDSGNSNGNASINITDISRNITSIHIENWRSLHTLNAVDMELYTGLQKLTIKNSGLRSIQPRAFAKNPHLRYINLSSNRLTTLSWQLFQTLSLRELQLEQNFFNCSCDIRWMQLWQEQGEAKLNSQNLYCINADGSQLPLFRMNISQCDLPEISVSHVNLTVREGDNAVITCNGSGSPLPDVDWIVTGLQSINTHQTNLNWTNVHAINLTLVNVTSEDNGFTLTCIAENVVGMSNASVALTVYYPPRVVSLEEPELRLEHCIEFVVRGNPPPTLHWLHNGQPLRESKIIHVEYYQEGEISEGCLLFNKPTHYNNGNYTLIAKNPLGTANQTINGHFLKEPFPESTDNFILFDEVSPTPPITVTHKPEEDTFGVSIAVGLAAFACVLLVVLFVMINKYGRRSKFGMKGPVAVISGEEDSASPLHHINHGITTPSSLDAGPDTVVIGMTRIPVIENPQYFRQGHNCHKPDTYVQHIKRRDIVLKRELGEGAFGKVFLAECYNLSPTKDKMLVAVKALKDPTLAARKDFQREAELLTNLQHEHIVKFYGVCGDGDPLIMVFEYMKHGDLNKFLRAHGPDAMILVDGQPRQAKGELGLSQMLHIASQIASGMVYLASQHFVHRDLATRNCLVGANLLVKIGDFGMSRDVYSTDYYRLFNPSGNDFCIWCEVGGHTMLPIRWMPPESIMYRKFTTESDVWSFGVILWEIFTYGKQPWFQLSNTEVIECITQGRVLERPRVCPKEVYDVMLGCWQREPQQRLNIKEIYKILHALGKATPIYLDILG
UniProt O96013: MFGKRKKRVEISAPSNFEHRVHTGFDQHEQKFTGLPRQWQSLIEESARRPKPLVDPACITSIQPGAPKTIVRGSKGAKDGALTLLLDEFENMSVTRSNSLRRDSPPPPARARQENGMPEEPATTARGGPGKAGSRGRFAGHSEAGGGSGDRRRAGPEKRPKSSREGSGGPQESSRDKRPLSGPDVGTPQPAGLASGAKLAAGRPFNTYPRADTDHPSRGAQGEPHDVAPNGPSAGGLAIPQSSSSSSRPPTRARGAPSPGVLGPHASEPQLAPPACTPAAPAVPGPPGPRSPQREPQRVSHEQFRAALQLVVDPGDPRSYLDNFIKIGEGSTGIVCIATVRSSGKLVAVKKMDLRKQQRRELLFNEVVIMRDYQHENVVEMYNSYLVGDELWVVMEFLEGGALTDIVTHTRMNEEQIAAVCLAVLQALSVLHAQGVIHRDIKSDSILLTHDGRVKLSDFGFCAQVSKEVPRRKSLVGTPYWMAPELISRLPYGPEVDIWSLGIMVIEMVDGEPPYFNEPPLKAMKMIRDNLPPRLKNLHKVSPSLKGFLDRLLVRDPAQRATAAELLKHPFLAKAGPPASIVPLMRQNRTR
UniProt Q96KB5: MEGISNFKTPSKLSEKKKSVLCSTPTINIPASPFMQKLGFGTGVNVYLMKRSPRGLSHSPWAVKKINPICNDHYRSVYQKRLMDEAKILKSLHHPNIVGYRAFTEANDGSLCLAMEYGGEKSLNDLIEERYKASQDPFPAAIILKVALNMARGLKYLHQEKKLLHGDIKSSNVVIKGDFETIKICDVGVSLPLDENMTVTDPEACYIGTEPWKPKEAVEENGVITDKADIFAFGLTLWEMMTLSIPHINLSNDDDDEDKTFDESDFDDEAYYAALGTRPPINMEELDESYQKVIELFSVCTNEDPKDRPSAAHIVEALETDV
UniProt Q05397, whole entry, looked up: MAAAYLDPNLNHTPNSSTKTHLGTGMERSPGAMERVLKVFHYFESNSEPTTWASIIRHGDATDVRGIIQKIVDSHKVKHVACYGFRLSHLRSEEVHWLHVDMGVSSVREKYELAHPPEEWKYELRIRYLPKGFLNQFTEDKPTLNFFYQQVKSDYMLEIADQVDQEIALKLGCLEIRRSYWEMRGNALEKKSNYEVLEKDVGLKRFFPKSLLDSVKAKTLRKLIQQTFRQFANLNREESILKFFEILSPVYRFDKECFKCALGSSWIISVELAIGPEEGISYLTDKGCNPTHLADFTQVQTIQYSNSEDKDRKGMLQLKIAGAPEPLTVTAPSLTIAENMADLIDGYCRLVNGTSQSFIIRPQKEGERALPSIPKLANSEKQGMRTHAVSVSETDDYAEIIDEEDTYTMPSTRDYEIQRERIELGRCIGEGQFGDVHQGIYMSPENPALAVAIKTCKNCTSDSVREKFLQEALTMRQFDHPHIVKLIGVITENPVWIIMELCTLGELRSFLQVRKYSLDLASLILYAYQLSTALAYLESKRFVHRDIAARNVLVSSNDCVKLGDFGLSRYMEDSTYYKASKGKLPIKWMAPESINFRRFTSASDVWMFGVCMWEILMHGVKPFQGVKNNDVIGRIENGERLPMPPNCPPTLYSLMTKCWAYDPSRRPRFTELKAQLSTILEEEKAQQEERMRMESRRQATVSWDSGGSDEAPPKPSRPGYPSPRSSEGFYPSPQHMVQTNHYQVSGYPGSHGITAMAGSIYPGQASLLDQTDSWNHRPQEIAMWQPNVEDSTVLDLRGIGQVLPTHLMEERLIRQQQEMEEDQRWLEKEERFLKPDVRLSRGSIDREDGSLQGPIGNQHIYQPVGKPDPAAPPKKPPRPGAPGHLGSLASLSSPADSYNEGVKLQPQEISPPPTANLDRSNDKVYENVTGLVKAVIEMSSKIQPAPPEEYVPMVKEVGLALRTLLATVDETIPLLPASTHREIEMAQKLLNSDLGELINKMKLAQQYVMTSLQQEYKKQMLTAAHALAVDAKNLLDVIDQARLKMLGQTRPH
UniProt Q14289, whole entry, looked up: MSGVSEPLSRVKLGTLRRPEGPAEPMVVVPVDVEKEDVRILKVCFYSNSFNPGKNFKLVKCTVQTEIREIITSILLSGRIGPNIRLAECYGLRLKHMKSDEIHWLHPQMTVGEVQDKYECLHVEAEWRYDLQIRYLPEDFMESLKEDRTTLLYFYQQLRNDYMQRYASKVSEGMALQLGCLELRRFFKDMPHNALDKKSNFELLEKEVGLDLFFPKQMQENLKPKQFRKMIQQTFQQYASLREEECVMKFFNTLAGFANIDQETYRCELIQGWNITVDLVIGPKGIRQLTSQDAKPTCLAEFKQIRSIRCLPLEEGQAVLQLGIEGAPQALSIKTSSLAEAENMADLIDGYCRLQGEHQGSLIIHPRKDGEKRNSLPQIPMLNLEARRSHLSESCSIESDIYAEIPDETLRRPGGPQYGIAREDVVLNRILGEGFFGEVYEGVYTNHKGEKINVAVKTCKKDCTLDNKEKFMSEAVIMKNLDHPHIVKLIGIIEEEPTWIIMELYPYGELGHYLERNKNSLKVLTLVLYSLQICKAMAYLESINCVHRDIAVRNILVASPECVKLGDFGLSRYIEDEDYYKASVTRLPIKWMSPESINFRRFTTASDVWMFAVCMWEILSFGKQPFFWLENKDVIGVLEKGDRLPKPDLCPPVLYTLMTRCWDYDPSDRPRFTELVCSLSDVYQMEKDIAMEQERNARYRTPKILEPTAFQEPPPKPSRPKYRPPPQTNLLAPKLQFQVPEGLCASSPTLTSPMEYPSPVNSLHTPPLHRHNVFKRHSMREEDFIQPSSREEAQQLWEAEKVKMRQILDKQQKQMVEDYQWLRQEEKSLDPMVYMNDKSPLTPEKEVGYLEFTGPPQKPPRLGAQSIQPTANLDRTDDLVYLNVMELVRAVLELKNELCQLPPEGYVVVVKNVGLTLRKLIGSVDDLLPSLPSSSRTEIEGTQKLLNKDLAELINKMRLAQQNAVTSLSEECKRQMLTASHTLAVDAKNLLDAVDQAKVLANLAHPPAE

Columns and labels:
Test in all cases: kinase-Nluc reporter destabilization hit call (1 = scored as downregulated) (binary); higher = compound decreases kinase abundance
Conditions in all cases: K562; 2-18 h
[1] = target: MAPK1 (UniProt P28482)
[2] = target: MAPK4 (UniProt P31152)
[3] = target: MAPKAPK2 (UniProt P49137)
[4] = target: MKNK1 (UniProt Q9BUB5)
[5] = target: NTRK2 (UniProt Q16620)
[6] = target: NTRK3 (UniProt Q16288)
[7] = target: PAK4 (UniProt O96013)
[8] = target: PBK (UniProt Q96KB5)
[9] = target: PDGFRB (UniProt P09619)
[10] = target: PDK1 (UniProt Q15118)
[11] = target: PDPK1 (UniProt O15530)
[12] = target: PIK4CA (UniProt P42356)
[13] = target: PIK4CB (UniProt Q9UBF8)
[14] = target: PLK1 (UniProt P53350)
[15] = target: PRKAA1 (UniProt Q13131)
[16] = target: PRKCA (UniProt P17252)
[17] = target: PTK2 (UniProt Q05397)
[18] = target: PTK2B (UniProt Q14289)
[19] = target: RAF1 (UniProt P04049)
[20] = target: RAF1_S257L (clone: RAF1_mut) (UniProt P04049)

Measured: kinase-Nluc reporter destabilization hit call

CCOc1cc2ncc(-c3cc(N)nc(F)c3)n2cc1S(=O)(=O)C(C)(C)C (10 µM)
inactive: [1] 0 | [2] 0 | [3] 0 | [4] 0 | [5] 0 | [6] 0 | [7] 0 | [8] 0 | [9] 0 | [10] 0 | [11] 0 | [12] 0 | [13] 0 | [14] 0 | [15] 0 | [16] 0 | [17] 0 | [18] 0 | [19] 0 | [20] 0

CC#CC(=O)N[C@H]1CCCN(c2c(F)cc(C(N)=O)c3[nH]c(C)c(C)c23)C1 [Branebrutinib] (10 µM)
inactive: [1] 0 | [2] 0 | [3] 0 | [4] 0 | [5] 0 | [6] 0 | [7] 0 | [8] 0 | [9] 0 | [10] 0 | [11] 0 | [12] 0 | [13] 0 | [14] 0 | [15] 0 | [16] 0 | [17] 0 | [18] 0 | [19] 0 | [20] 0

CCN1C(=O)N(c2c(F)c(OC)cc(OC)c2F)Cc2cnc3[nH]c(CN4CCOCC4)cc3c21 [Pemigatinib] (10 µM)
inactive: [1] 0 | [2] 0 | [3] 0 | [4] 0 | [5] 0 | [6] 0 | [7] 0 | [8] 0 | [9] 0 | [10] 0 | [11] 0 | [12] 0 | [13] 0 | [14] 0 | [15] 0 | [16] 0 | [17] 0 | [18] 0 | [19] 0 | [20] 0

Nc1nc(N)c(N=O)c(OCC2CCCCC2)n1 (10 µM)
inactive: [1] 0 | [2] 0 | [3] 0 | [4] 0 | [5] 0 | [6] 0 | [7] 0 | [8] 0 | [9] 0 | [10] 0 | [11] 0 | [12] 0 | [13] 0 | [14] 0 | [15] 0 | [16] 0 | [17] 0 | [18] 0 | [19] 0 | [20] 0

As a working copy, 3 of the compounds above:
CC#CC(=O)N[C@H]1CCCN(c2c(F)cc(C(N)=O)c3[nH]c(C)c(C)c23)C1 [Branebrutinib] (10 µM)
inactive: [1] 0 | [2] 0 | [3] 0 | [4] 0 | [5] 0 | [6] 0 | [7] 0 | [8] 0 | [9] 0 | [10] 0 | [11] 0 | [12] 0 | [13] 0 | [14] 0 | [15] 0 | [16] 0 | [17] 0 | [18] 0 | [19] 0 | [20] 0

CCN1C(=O)N(c2c(F)c(OC)cc(OC)c2F)Cc2cnc3[nH]c(CN4CCOCC4)cc3c21 [Pemigatinib] (10 µM)
inactive: [1] 0 | [2] 0 | [3] 0 | [4] 0 | [5] 0 | [6] 0 | [7] 0 | [8] 0 | [9] 0 | [10] 0 | [11] 0 | [12] 0 | [13] 0 | [14] 0 | [15] 0 | [16] 0 | [17] 0 | [18] 0 | [19] 0 | [20] 0

Nc1nc(N)c(N=O)c(OCC2CCCCC2)n1 (10 µM)
inactive: [1] 0 | [2] 0 | [3] 0 | [4] 0 | [5] 0 | [6] 0 | [7] 0 | [8] 0 | [9] 0 | [10] 0 | [11] 0 | [12] 0 | [13] 0 | [14] 0 | [15] 0 | [16] 0 | [17] 0 | [18] 0 | [19] 0 | [20] 0

Further compounds:

CCCCOc1c(C(=O)c2c(F)cc(C)cc2F)c[nH]c2nncc1-2 (10 µM)
inactive: [1] 0 | [2] 0 | [3] 0 | [4] 0 | [5] 0 | [6] 0 | [7] 0 | [8] 0 | [9] 0 | [10] 0 | [11] 0 | [12] 0 | [13] 0 | [14] 0 | [15] 0 | [16] 0 | [17] 0 | [18] 0 | [19] 0 | [20] 0

Cc1nc(-c2cnc(NC(C)C)n(C)c2=O)ccc1Oc1ccnc(-c2cnn(C)c2)c1 (2.5 µM)
inactive: [1] 0 | [2] 0 | [3] 0 | [4] 0 | [5] 0 | [6] 0 | [7] 0 | [8] 0 | [9] 0 | [10] 0 | [11] 0 | [12] 0 | [13] 0 | [14] 0 | [15] 0 | [16] 0 | [17] 0 | [18] 0 | [19] 0 | [20] 0

C[C@]1(O)C[C@@H](c2nc(-c3ccc4ccc(-c5ccccc5)nc4c3)c3c(N)nccn32)C1 [Linsitinib] (2.5 µM)
inactive: [1] 0 | [2] 0 | [3] 0 | [4] 0 | [5] 0 | [6] 0 | [7] 0 | [8] 0 | [9] 0 | [10] 0 | [11] 0 | [12] 0 | [13] 0 | [14] 0 | [15] 0 | [16] 0 | [17] 0 | [18] 0 | [19] 0 | [20] 0

COc1ccc2c(C(=O)Nc3ccc(NC(=O)c4nn(C5CCN(C(=O)CC(C)(C)C#N)CC5)c5ccc(F)cc45)cc3Cl)cnn2c1 [Src Inhibitor 3] (2.5 µM)
inactive: [1] 0 | [2] 0 | [3] 0 | [4] 0 | [5] 0 | [6] 0 | [7] 0 | [8] 0 | [9] 0 | [10] 0 | [11] 0 | [12] 0 | [13] 0 | [14] 0 | [15] 0 | [16] 0 | [17] 0 | [18] 0 | [19] 0 | [20] 0

N#Cc1ccc2[nH]c(O)c(-c3ccc(CN4CCOCC4)cn3)c2c1 (10 µM)
inactive: [1] 0 | [2] 0 | [3] 0 | [4] 0 | [5] 0 | [6] 0 | [7] 0 | [8] 0 | [9] 0 | [10] 0 | [11] 0 | [12] 0 | [13] 0 | [14] 0 | [15] 0 | [16] 0 | [17] 0 | [18] 0 | [19] 0 | [20] 0

O=c1c(-c2ccc(O)cc2)coc2cc(O)cc(O)c12 [Genistein] (10 µM)
inactive: [1] 0 | [2] 0 | [3] 0 | [4] 0 | [5] 0 | [6] 0 | [7] 0 | [8] 0 | [9] 0 | [10] 0 | [11] 0 | [12] 0 | [13] 0 | [14] 0 | [15] 0 | [16] 0 | [17] 0 | [18] 0 | [19] 0 | [20] 0

COc1ccc(C=C(C#N)c2cccnc2)cc1OC (10 µM)
inactive: [1] 0 | [2] 0 | [3] 0 | [4] 0 | [5] 0 | [6] 0 | [7] 0 | [8] 0 | [9] 0 | [10] 0 | [11] 0 | [12] 0 | [13] 0 | [14] 0 | [15] 0 | [16] 0 | [17] 0 | [18] 0 | [19] 0 | [20] 0

CNC(=O)c1cccc(-c2ccc3c(N4CCOC[C@@H]4C)nc(N4CCOC[C@@H]4C)nc3n2)c1 [Vistusertib] (2.5 µM)
inactive: [1] 0 | [2] 0 | [3] 0 | [4] 0 | [5] 0 | [6] 0 | [7] 0 | [8] 0 | [9] 0 | [10] 0 | [11] 0 | [12] 0 | [13] 0 | [14] 0 | [15] 0 | [16] 0 | [17] 0 | [18] 0 | [19] 0 | [20] 0

O=c1cc(N2CCOCC2)oc2c(-c3ccccc3)cccc12 (10 µM)
inactive: [1] 0 | [2] 0 | [3] 0 | [4] 0 | [5] 0 | [6] 0 | [7] 0 | [8] 0 | [9] 0 | [10] 0 | [11] 0 | [12] 0 | [13] 0 | [14] 0 | [15] 0 | [16] 0 | [17] 0 | [18] 0 | [19] 0 | [20] 0

COc1cc(Nc2ncc3c(n2)-c2ccc(Cl)cc2C(c2c(F)cccc2OC)=NC3)ccc1C(=O)O [Alisertib] (2.5 µM)
inactive: [1] 0 | [2] 0 | [3] 0 | [4] 0 | [5] 0 | [6] 0 | [7] 0 | [8] 0 | [9] 0 | [10] 0 | [11] 0 | [12] 0 | [13] 0 | [14] 0 | [15] 0 | [16] 0 | [17] 0 | [18] 0 | [19] 0 | [20] 0

Cc1c(NC(=O)c2cc3c(s2)CCCC3)cccc1-c1cn(C)c(=O)c(Nc2ccc([C@@H]3C(=O)N(C)CCN3C)cc2)n1 (10 µM)
inactive: [1] 0 | [2] 0 | [3] 0 | [4] 0 | [5] 0 | [6] 0 | [7] 0 | [8] 0 | [9] 0 | [10] 0 | [11] 0 | [12] 0 | [13] 0 | [14] 0 | [15] 0 | [16] 0 | [17] 0 | [18] 0 | [19] 0 | [20] 0

CCn1c(=O)c2cc(C(N)=O)c(N)nc2n(C2CC2)c1=O (10 µM)
inactive: [1] 0 | [2] 0 | [3] 0 | [4] 0 | [5] 0 | [6] 0 | [7] 0 | [8] 0 | [9] 0 | [10] 0 | [11] 0 | [12] 0 | [13] 0 | [14] 0 | [15] 0 | [16] 0 | [17] 0 | [18] 0 | [19] 0 | [20] 0

COc1cc(OC)c(F)c(COc2cnc(Nc3cnn(CCO)c3)nc2)c1F (2.5 µM)
inactive: [1] 0 | [2] 0 | [3] 0 | [4] 0 | [5] 0 | [6] 0 | [7] 0 | [8] 0 | [9] 0 | [10] 0 | [11] 0 | [12] 0 | [13] 0 | [14] 0 | [15] 0 | [16] 0 | [17] 0 | [18] 0 | [19] 0 | [20] 0

Cc1c[nH]c(/C=C2\C(=O)Nc3ccccc32)c1CCC(=O)O (10 µM)
inactive: [1] 0 | [2] 0 | [3] 0 | [4] 0 | [5] 0 | [6] 0 | [7] 0 | [8] 0 | [9] 0 | [10] 0 | [11] 0 | [12] 0 | [13] 0 | [14] 0 | [15] 0 | [16] 0 | [17] 0 | [18] 0 | [19] 0 | [20] 0
